This test deals with Aβ40 (β-amyloid peptide 1-40), as fibrils P2′ and P2″ grown from monomer with P1 seeds and αBC, and as mature P2 fibrils (UniProt P05067). Put plainly: co-sedimentation; Aβ40 fibrils grown from 50 μM monomeric Aβ40 with 5% P1 seeds and 5 μM (P2′) or 25 μM (P2″) αBC; one round of sedimentation; αBC found with the fibrils (Figure S1E); both purified.

Amino acid sequences for entries named in this document (tags omitted). Residues count along the entry.
UniProt P05067, residues 672-711: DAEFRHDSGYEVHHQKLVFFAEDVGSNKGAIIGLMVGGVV

Experimental findings from publication PMC11258688 are described below.

Results are given in words; binding and its absence hold for the method and conditions named. Some entries that bind do so weakly or less than the wild type.

B1: small heat shock protein αB-Crystallin (protein, UniProt P02511 1-175)
chain: MDIAIHHPWIRRPFFPFHSPSRLFDQFFGEHLLESDLFPTSTSLSPFYLRPPSFLRAPSWFDTGLSEMRLEKDRFSVNLDVKHFSPEELKVKVLGDVIEVHGKHEERQDEHGFISREFHRKYRIPADVDPLTITSSLSSDGVLTVNGPRKQVSGPERTIPITREEKPAVTAAPKK
Regarding B1, the binding entry is “binds”.
